{"source": "PubChem BioAssay AID504834", "about": "(National Center for Advancing Translational Sciences (NCATS), 2011)", "note": "Hit rate of the full screen: of about 320,000 compounds, about 22,000 (6.9%) were called active. The shares of active, inactive and inconclusive entries below differ from those in the screen. Calls follow the shape of the dose curve; as a rule, active = well fitted inhibition curve with a large enough effect; inconclusive = small, poorly fitted or top-dose-only effect, or another doubt; inactive = no such curve, though single readings can be large or run the other way. Potencies beside an inconclusive call are fits to weak or partial responses and may not hold up. Potency is read from the fitted curve at half-maximal effect."}
{"assay": "Primary qHTS for delayed death inhibitors of the malarial parasite plastid, 96 hour incubation", "details": "P. falciparum luciferase reporter growth; series mostly up to 28.7 µM", "summary_of_the_method": "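Erythrocytes infected with luciferase-expressing P. falciparum were dispensed at 2% hematocrit and 0.05% parasitemia (final), then incubated with compounds 96 hours at 37 C in 5% CO2. Luminescence after detection reagent addition reported growth.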"}
{"smiles": "CC(NC(=O)CN(Cc1ccccc1)S(=O)(=O)c1ccccc1)c1cccnc1", "note": "(stereo unspecified)", "Potency": "inconclusive: 10.4 µM [inhibitor, single point]"}
{"smiles": "O=C(Cn1cc(C(=S)N2CCOCC2)c2ccccc21)N1CCOCC1", "Potency": "inconclusive: 11.7 µM [inhibitor, single point]"}
{"smiles": "CN(N)C(=S)Nc1ccc(Cl)cc1", "Potency": "inactive"}
{"smiles": "O=C(Cn1cc([N+](=O)[O-])cn1)Nc1nc2ccccc2s1", "Potency": "inactive"}
{"smiles": "Cc1cccc(OCC(=O)NNC(=O)CSc2ncc(C#N)c(N)n2)c1", "Potency": "inconclusive: 18.5 µM [inhibitor, single point]"}
{"smiles": "O=C(N=C1c2ccccc2CN1c1ccc(F)c(F)c1)c1cccnc1", "Potency": "inactive"}
{"smiles": "Cc1ccc(OCCN(C)C(=O)C2CCC(=O)N(CCCN3CCOCC3)C2)cc1", "note": "(stereo unspecified)", "Potency": "inconclusive: 16.5 µM [inhibitor, single point]"}
{"smiles": "Cc1onc(-c2ccccc2)c1C(=O)NCC1CCN(C(=O)c2c(-c3ccccc3)noc2C)CC1", "Potency": "inconclusive: 0.131 µM [inhibitor, full curve, poor fit]"}
{"smiles": "Cc1ccc(OCC(=O)Nc2ccc(S(=O)(=O)Nc3onc(C)c3C)cc2)cc1", "Potency": "inconclusive: 11.7 µM [inhibitor, partial curve]"}
{"smiles": "CCC(C)Sc1ccc([C@@H]2[C@@H]3C(=O)N(C)C(=O)[C@@H]3[C@]3(C(=O)OC)CCCCN23)cc1OC", "note": "(stereo partly specified)", "Potency": "inconclusive: 11.7 µM [inhibitor, single point]"}
{"smiles": "CCn1nc(NS(=O)(=O)c2cccc3nonc23)c2cc3ccc(C)cc3nc21", "Potency": "inconclusive: 9.28 µM [inhibitor, single point]"}
{"smiles": "O=C(O)c1ccc2c(c1)C(=O)N(CCc1ccccc1)C2=O", "Potency": "inconclusive: 11.7 µM [inhibitor, single point]"}
{"smiles": "CCCOc1cccc(C(=O)Nc2cccnc2)c1", "Potency": "inconclusive: 11.7 µM [inhibitor, single point]"}
{"smiles": "CC1=CC(C2CC(=O)N(c3ccc(C)cc3)C2=O)CC2C(=O)N(c3ccc(C)cc3)C(=O)C12", "note": "(stereo unspecified)", "Potency": "inactive"}
{"smiles": "Cc1nn(Cc2ccccc2Cl)c(C)c1NC(=O)CCCn1nc([N+](=O)[O-])c(Cl)c1C", "Potency": "active: 4.65 µM"}
{"smiles": "COCC(C)n1c(SCc2nc3ccccc3c(=O)[nH]2)nc2ccccc2c1=O", "note": "(stereo unspecified)", "Potency": "inconclusive: 9.28 µM [inhibitor, single point]"}
{"smiles": "Cc1ccc(Cn2c(=N)c(C(=O)NCCN3CCOCC3)cc3c(=O)n4ccccc4nc32)cc1", "Potency": "inconclusive: 2.33 µM [inhibitor, full curve]"}
{"smiles": "CC(C)c1ccc(NC(=O)C2CC(=O)N(C3CCCC3)C2)cc1", "note": "(stereo unspecified)", "Potency": "inconclusive: 13.1 µM [inhibitor, partial curve, poor fit]"}
{"smiles": "CCOC(=O)c1nc(NCc2ccccc2F)c2ccccc2n1", "Potency": "inconclusive: 18.5 µM [inhibitor, single point]"}
{"smiles": "O=C(CCCn1c(SCC(=O)c2ccc(O)c(O)c2)nc2ccccc2c1=O)NCC1CCCO1", "note": "(stereo unspecified)", "Potency": "inconclusive: 10.4 µM [inhibitor, partial curve, poor fit]"}
{"smiles": "COc1ccccc1-c1c(C)nn2c(-c3ccccc3)cc(C)nc12", "Potency": "inconclusive: 13.1 µM [inhibitor, partial curve]"}
{"smiles": "CC1CC1c1ccc(/C=C(\\C#N)C(=O)Nc2cccc(Cl)c2Cl)o1", "note": "(stereo unspecified)", "Potency": "inconclusive: 4.15 µM [inhibitor, partial curve, poor fit]"}
{"smiles": "CC(C)C(=O)NC(C)C(c1cccs1)N1CCN(c2ccccc2)CC1", "note": "(stereo unspecified)", "Potency": "inconclusive: 18.5 µM [inhibitor, single point]"}
{"smiles": "CSc1nc(-c2ccco2)cc(-c2ccccc2)c1C#N", "Potency": "inconclusive: 16.5 µM [inhibitor, single point]"}
{"smiles": "COc1ccc(OC)c(S(=O)(=O)Nc2ccc(-c3ccc4nnc(C)n4n3)cc2)c1", "Potency": "inconclusive: 16.5 µM [inhibitor, partial curve, poor fit]"}
{"smiles": "Cc1ccc2c(C)nc(Nc3nc(CSc4nnc(C)s4)cc(=O)[nH]3)nc2c1", "Potency": "inconclusive: 5.86 µM [inhibitor, partial curve]"}
{"smiles": "O=C(N/N=C\\c1cc([N+](=O)[O-])ccc1N1CCOCC1)c1ccccn1", "Potency": "inconclusive: 18.5 µM [inhibitor, single point]"}
{"smiles": "O=[N+]([O-])c1ccc(N=NNc2ccccc2)cc1", "Potency": "inactive"}
{"smiles": "O=C(NC(=S)Nc1cc(C(F)(F)F)ccc1N1CCOCC1)c1ccco1", "Potency": "inconclusive: 1.04 µM [inhibitor, full curve]"}
{"smiles": "COc1ccc(C(C[N+](=O)[O-])c2c(-c3ccccc3)cc3ccccn23)cc1OC", "note": "(stereo unspecified)", "Potency": "inconclusive: 11.7 µM [inhibitor, single point]"}
{"smiles": "CCN1CCN(C(=O)c2ccccc2N(Cc2ccccc2)S(=O)(=O)c2ccc(OC)cc2)CC1", "Potency": "inconclusive: 7.38 µM [inhibitor, partial curve, poor fit]"}
{"smiles": "CC(C)N1CCN(Cc2cccc3c2OCO3)CC1CCO", "note": "(stereo unspecified)", "Potency": "inconclusive: 13.1 µM [inhibitor, single point]"}
{"smiles": "FC(F)(F)c1cccc(NC(=S)Nc2ccc(Cl)cc2Cl)c1", "Potency": "inconclusive: 3.7 µM [inhibitor, full curve, poor fit]"}
{"smiles": "O=C1C=C(c2cc(Cl)cc(Cl)c2)C[C@@H](c2ccc3c(c2)OCO3)C1", "Potency": "inconclusive: 18.5 µM [inhibitor, single point]"}
{"smiles": "O=C(Nc1ccc([N+](=O)[O-])cc1)c1cc(Cl)sc1Cl", "Potency": "inconclusive: 18.5 µM [inhibitor, single point]"}
{"smiles": "CC(C)(C)C(=O)Nc1nnc(SCC(=O)NC2CC2)s1", "Potency": "inactive"}
{"smiles": "CCOc1ccc(CCNC(=O)COC(=O)c2ccc(OC(C)C)cc2)cc1OCC", "Potency": "inconclusive: 18.5 µM [inhibitor, single point]"}
{"smiles": "COc1ccc(NC(=O)c2cccnc2)c([N+](=O)[O-])c1", "Potency": "inconclusive: 3.29 µM [inhibitor, partial curve, poor fit]"}
{"smiles": "Cc1oc(-c2ccccc2F)nc1CS(=O)(=O)CC(=O)N1CCOCC1", "Potency": "active: 9.28 µM"}
{"smiles": "Cc1c(-n2c(-c3ccccc3)nc3ccccc3c2=O)c(=O)n(-c2ccccc2)n1C", "Potency": "inconclusive: 16.5 µM [inhibitor, single point]"}
{"smiles": "COc1cc(/C=N\\Nc2nc(-c3ccc(C)cc3)c(NC(C)=O)s2)ccc1O", "Potency": "active: 5.86 µM"}
{"smiles": "O=[N+]([O-])c1cc(S(=O)(=O)N2CCCCC2)ccc1NCCN1CCOCC1", "Potency": "inconclusive: 0.465 µM [inhibitor, full curve, poor fit]"}
{"smiles": "C/C(CC(=O)Nc1ccccc1Cl)=N\\NC(=O)C(=O)NCCO", "Potency": "inactive"}
{"smiles": "CSc1ncccc1C(=O)Nc1ccc(OC(F)(F)F)cc1", "Potency": "inactive"}
{"smiles": "CC(CCCC(C)(C)O)NC(=O)c1cc(COc2ccc3ncccc3c2)on1", "note": "(stereo unspecified)", "Potency": "inactive"}
{"smiles": "CC(=O)N1c2ccc(S(=O)(=O)NCC3CCC(C(=O)N4CCCC(C)C4)CC3)cc2CC1C", "note": "(stereo unspecified)", "Potency": "active: 1.17 µM"}
{"smiles": "CN1CCC(=NNC(=O)c2ccc(N(Cc3ccc(Cl)cc3)S(C)(=O)=O)cc2)CC1", "Potency": "inconclusive: 1.04 µM [inhibitor, partial curve, poor fit]"}
{"smiles": "NNC(=S)NC1CCS(=O)(=O)C1", "note": "(stereo unspecified)", "Potency": "inconclusive: 2.08 µM [inhibitor, full curve]"}
{"smiles": "Cn1c(CCNC(=O)c2ccccc2)nc2cc(NC(=O)C3CCCCC3)ccc21", "Potency": "inconclusive: 0.928 µM [inhibitor, full curve, poor fit]"}
{"smiles": "COc1ccc(CNC(=O)COC(=O)/C=C/c2cccc(Br)c2)cc1", "Potency": "inactive"}
{"smiles": "CN(C)S(=O)(=O)c1ccc(Cl)c(NC(=O)CN2CCNC(=O)C2)c1", "Potency": "inactive"}
{"smiles": "CCN(CC)CCN1C(=O)C(=O)/C(=C(/O)c2c(C)[nH]c(C(=O)OC)c2C)C1c1ccccc1OC", "note": "(stereo unspecified)", "Potency": "inconclusive: 8.28 µM [inhibitor, partial curve, poor fit]"}
{"smiles": "COc1ccc(NC(=O)C2CCN(S(=O)(=O)c3cccc4nonc34)CC2)cc1", "Potency": "inconclusive: 11.7 µM [inhibitor, single point]"}
{"smiles": "COc1ccc(CNc2nc(S(=O)(=O)c3ccccc3)c(Cl)s2)cc1OC", "Potency": "inconclusive: 18.5 µM [inhibitor, single point]"}
{"smiles": "CCOC(=O)CSC1=C(C#N)C(c2ccco2)C(C(=O)Nc2cccc(C(F)(F)F)c2)=C(C)N1", "note": "(stereo unspecified)", "Potency": "inactive"}
{"smiles": "CCOc1ccc(N=CNc2ccc(OCC)cc2)cc1", "Potency": "inconclusive: 10.4 µM [inhibitor, partial curve, poor fit]"}
{"smiles": "COc1ccc(/C=N/NC(=O)CC2N=C(Cc3ccccc3)NNC2=O)cc1OC", "note": "(stereo unspecified)", "Potency": "inconclusive: 11.7 µM [inhibitor, single point]"}
{"smiles": "O=C(Oc1ccc([N+](=O)[O-])cc1)c1cncc(Br)c1", "Potency": "inactive"}
{"smiles": "Cc1ccc(C(=O)c2coc3cc([N+](=O)[O-])c(O)c([N+](=O)[O-])c23)cc1", "Potency": "inactive"}
{"smiles": "CNC(=O)C(=O)Nc1cc2c3c(c1)CCC(=O)N3CCC2", "Potency": "inactive"}
{"smiles": "Cc1cc(NC(=O)CON=C(N)CC(=O)Nc2ccccc2Cl)ccc1Br", "Potency": "inconclusive: 18.5 µM [inhibitor, single point]"}
{"smiles": "COCCNC(=O)c1c(N)n(-c2ccccc2)c2nc3ccccc3nc12", "Potency": "inconclusive: 2.62 µM [inhibitor, full curve, poor fit]"}
{"smiles": "COCC(=O)N1CCC(Oc2ccc(C(=O)N(C)Cc3nccs3)cc2)CC1", "Potency": "inactive"}
{"smiles": "C/C(=N/NC(=O)CN1CCN(S(=O)(=O)c2ccc(Br)cc2)CC1)c1cccnc1", "Potency": "inconclusive: 4.15 µM [inhibitor, single point]"}
{"smiles": "O=C(COC(=O)c1cc2ccccc2o1)c1ccccc1", "Potency": "inconclusive: 18.5 µM [inhibitor, single point]"}
{"smiles": "Cc1cc(C2=NNC(=NC3CC3)SC2)c(C)n1Cc1ccco1", "Potency": "inconclusive: 9.28 µM [inhibitor, single point]"}
